Source: PubChem BioAssay AID602196 (INSERM, 2012)
In all, the deposit lists about 23,000 reagents; shown is a part drawn at random. 455 of all reagents (2%) count as active. 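Active includes both protection and sensitisation; some change values fall well beyond the stated -50 to +50 range.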 Unmarked entries are inactive. The numbers tell different reagents against one gene apart. Further read-outs or replicates are left out here. Not given: the amount of reagent.

Purpose: 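Genes whose knock-down alters cisplatin killing of lung cancer cells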
Cells: human A549 lung cancer cells
Knock-down reagent: siRNA pair against human genes
Duration: 48 h transfection before cisplatin; time from cisplatin to read-out not stated
Challenge: cisplatin at a dose killing half of control-siRNA cells; exact dose and duration not given
Read-out: 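Shift in cisplatin death relative to control siRNA, from -50 (all cells die) to +50 (no cells die); siRNAs harmful on their own scored 0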
Scale: two-siRNA summed score (-2 to +2): higher = both siRNAs protect from cisplatin killing; -2 means both sensitise; mean protection from cisplatin (shift in death) and protection from cisplatin (shift in death), siRNA C: higher = protection from cisplatin killing
Call rule: 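Each siRNA scores 0 if harmful alone by LDH or WST-1, otherwise +1 if it reduces and -1 if it increases cisplatin killing; a gene is active when both siRNAs agree (sum +2 or -2)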
Meaning of the calls: active = both siRNAs shift cisplatin killing the same way; inactive = no consistent shift, or siRNA harmful alone

no.	Gene	reagent no.	two-siRNA summed score (-2 to +2)	mean protection from cisplatin (shift in death) (%)	protection from cisplatin (shift in death), siRNA C (%)
1	LOC440206	1	0	17.2	15.1
2	NMNAT3 (nicotinamide nucleotide adenylyltransferase 3)	1	1	5.8	10
3	STK32A (serine/threonine kinase 32A)	1	0	5.8	9.1
4	PPIP5K2 (diphosphoinositol pentakisphosphate kinase 2)	1	0	6.8	7.1
5	UFC1 (ubiquitin-fold modifier conjugating enzyme 1)	1	0	0.1	-1.7
6	LOC389322	1	0	1	1.7
7	LOC440406	1	0	13.2	16.9
8	GNAQ (G protein subunit alpha q)	1	0	-1.2	5.5
9	MARCHF4 (membrane associated ring-CH-type finger 4)	1	0	-2.7	0.2
10	CDC37L1 (cell division cycle 37 like 1, HSP90 cochaperone)	1	0	-4	4.5
11	UBL5 (ubiquitin like 5)	1	0	2.8	7.1
12	FMO3 (flavin containing dimethylaniline monoxygenase 3)	1	0	28	40.9
13	PRKACG (protein kinase cAMP-activated catalytic subunit gamma)	1	1	10.9	2.4
14	RAB3GAP2 (RAB3 GTPase activating non-catalytic protein subunit 2)	1	0	-4.8	-2.3
15	NDRG1 (N-myc downstream regulated 1)	1	0	0.3	-11
16	NDUFA12 (NADH:ubiquinone oxidoreductase subunit A12)	1	0	13.2	11
17	LOC162835	1	0	4	2.8
18	PSMF1 (proteasome inhibitor subunit 1)	1	1	20.9	28.3
19	HSD17B7P2 (hydroxysteroid 17-beta dehydrogenase 7 pseudogene 2)	1	0	14.4	42
20	YWHAEP5	1	0	10.1	9.6
21	TMEM266 (transmembrane protein 266)	1	1	18	14.3
22	ARHGEF3 (Rho guanine nucleotide exchange factor 3)	1	0	4.3	13.2
23	TUBA8 (tubulin alpha 8)	1	0	-2.3	9.3
24	COQ4 (coenzyme Q4)	1	0	-1.9	-12.5
25	MTF1 (metal regulatory transcription factor 1)	1	1	10.5	21.7
26	ELOVL6 (ELOVL fatty acid elongase 6)	1	0	7.6	7.1
27	SNX2 (sorting nexin 2)	1	0	-8.5	-15.3
28	FBH1 (F-box DNA helicase 1)	1	0	23.8	32.7
29	NPY5R (neuropeptide Y receptor Y5)	1	0	-1.3	-11
30	ZBTB20 (zinc finger and BTB domain containing 20)	1	0	6.2	-2.8
31	FEZF2 (FEZ family zinc finger 2)	1	0	12.6	17.6
32	DCAF8L2 (DDB1 and CUL4 associated factor 8 like 2)	1	1	5.9	11.1

Reprinted from the entries so far for reference:
no.	Gene	reagent no.	two-siRNA summed score (-2 to +2)	mean protection from cisplatin (shift in death) (%)	protection from cisplatin (shift in death), siRNA C (%)
7	LOC440406	1	0	13.2	16.9
8	GNAQ (G protein subunit alpha q)	1	0	-1.2	5.5
9	MARCHF4 (membrane associated ring-CH-type finger 4)	1	0	-2.7	0.2

More records follow.
no.	Gene	reagent no.	two-siRNA summed score (-2 to +2)	mean protection from cisplatin (shift in death) (%)	protection from cisplatin (shift in death), siRNA C (%)
33	AIM2 (absent in melanoma 2)	1	0	7.6	17
34	IL36B (interleukin 36 beta)	1	0	3.4	6.7
35	LOC392465	1	0	8.8	6
36	RASGRF2 (Ras protein specific guanine nucleotide releasing factor 2)	1	0	1.1	-8
37	GNAI1 (G protein subunit alpha i1)	1	0	2.2	3.5
38	SNRNP70 (small nuclear ribonucleoprotein U1 subunit 70)	1	0	1.3	9.7
39	C5orf22 (chromosome 5 open reading frame 22)	1	1	10.7	-1.4
40	ITIH3 (inter-alpha-trypsin inhibitor heavy chain 3)	1	0	11.4	7.8
41	SEC61A2 (SEC61 translocon subunit alpha 2)	1	0	2.6	-7
42	PCDHA6 (protocadherin alpha 6)	1	0	-4	-1.4
43	CATSPER4 (cation channel sperm associated 4)	1	1	16.7	22.3
44	TNIP2 (TNFAIP3 interacting protein 2)	1	0	-9.2	-17.8
45	SIRAL1 (SIR2 antiphage like 1)	1	-1	-10.6	-19
46	CLEC7A (C-type lectin domain containing 7A)	1	1	8.5	-2
47	CD302 (CD302 molecule)	1	0	1.3	4.3
48	DDI2 (DDI proteasomal shuttling factor 2)	1	0	5.6	7.8
49	DDI2 (DDI proteasomal shuttling factor 2)	2	1	11.3	1.7
50	LOC440923	1	0	2.5	6.4
51	ZSCAN29 (zinc finger and SCAN domain containing 29)	1	0	9	9.9
52	C1RL (complement C1r subcomponent like)	1	0	-11.8	-13.3
53	LOC440055	1	0	16.8	10.7
54	ABRA (actin binding Rho activating protein)	1	0	-1.4	17.2
55	CTSS (cathepsin S)	1	0	1.8	3.2
56	LOC388823	1	0	12	11.8
57	GBP6 (guanylate binding protein family member 6)	1	0	-2.7	-20.2
